Measurements reported in patent US20090263341A1, “SOFT ANTICHOLINERGIC ESTERS” (priority 2005, published 2009).

Test system: guinea pig ileum longitudinal muscle strips
Test: Guinea pig ileum longitudinal muscle assay, pA2 against acetylcholine (Schild plot)
Settings: tissue samples from four animals; tested form: Br

Compound: CCCCCCCCOC(=O)C[N+]1(C)CCC(OC(=O)C(O)(c2ccccc2)C2CCCC2)C1 (stereo not shown)
- pA2, Ileum: 6.64

Structures were worked out from names or drawings and are uncertain.
